The values below come from paper doi:10.1101/2023.03.06.531332.

No constants are given. Whether binding was seen depends on the method and setting. In cells and extracts the contact can be indirect. Sequences can lack the tags named with a protein.

The target in this test is FLAG-NHERF1 S1S2 (GYGF to GAGA in the carboxylate-binding loops of both PDZ domains) (UniProt O14745). The test can be described thus: co-IP.

B1: HA-GFP-NPT2A CT-AAA (carboxy-terminal -TRL639 PDZ ligand replaced with a triple Ala sequence) (protein, UniProt Q06495 1-639)
chain: MLSYGERLGSPAVSPLPVRGGHVMRGTAFAYVPSPQVLHRIPGTSAYAFPSLGPVALAEHTCPCGEVLERHEPLPAKLALEEEQKPESRLVPKLRQAGAMLLKVPLMLTFLYLFVCSLDMLSSAFQLAGGKVAGDIFKDNAILSNPVAGLVVGILVTVLVQSSSTSTSIIVSMVSSGLLEVSSAIPIIMGSNIGTSVTNTIVALMQAGDRTDFRRAFAGATVHDCFNWLSVLVLLPLEAATGYLHHITRLVVASFNIHGGRDAPDLLKIITEPFTKLIIQLDESVITSIATGDESLRNHSLIQIWCHPDSLQAPTSMSRAEANSSQTLGNATMEKCNHIFVDTGLPDLAVGLILLAGSLVLLCTCLILLVKMLNSLLKGQVAKVIQKVINTDFPAPFTWVTGYFAMVVGASMTFVVQSSSVFTSAITPLIGLGVISIERAYPLTLGSNIGTTTTAILAALASPREKLSSAFQIALCHFFFNISGILLWYPVPCTRLPIRMAKALGKRTAKYRWFAVLYLLVCFLLLPSLVFGISMAGWQVMVGVGTPFGALLAFVVLINVLQSRSPGHLPKWLQTWDFLPRWMHSLKPLDHLITRATLCCARPEPRSPPLPPRVFLEELPPATPSPRLALPAHHNAAAA
On to B1, for which the binding entry was “no binding”.
